This test concerns the target GST-TMEM135 fusion protein (mouse) (UniProt Q9CYV5). The test can be described thus: pull-down; 5 ug GST-TMEM135 on glutathione agarose beads added to brown adipocyte RIPA lysate diluted with an equal volume of detergent-free buffer (10% glycerol, 1 mM DTT in PBS), 4 °C overnight; washed four times with TBS; GST alone beads as control; only the target purified.

The chains behind the UniProt entries cited, without tags or fusion partners. Where a name states a change or a piece, a line headed by the entry shows the natural chain unless it says otherwise.
UniProt Q9CYV5: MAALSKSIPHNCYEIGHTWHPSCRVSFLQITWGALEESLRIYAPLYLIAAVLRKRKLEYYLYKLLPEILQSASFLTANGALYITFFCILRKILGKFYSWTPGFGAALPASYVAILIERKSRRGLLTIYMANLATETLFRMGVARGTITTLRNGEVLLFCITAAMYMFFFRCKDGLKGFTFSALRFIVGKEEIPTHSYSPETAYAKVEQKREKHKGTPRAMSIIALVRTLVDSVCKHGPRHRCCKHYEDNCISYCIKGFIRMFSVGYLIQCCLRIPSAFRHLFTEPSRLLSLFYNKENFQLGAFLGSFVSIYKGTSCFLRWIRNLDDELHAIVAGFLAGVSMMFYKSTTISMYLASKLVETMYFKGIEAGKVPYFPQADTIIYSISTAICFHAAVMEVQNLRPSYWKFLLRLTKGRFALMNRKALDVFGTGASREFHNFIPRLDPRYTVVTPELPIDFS

Results are given in words; binding and its absence hold for the method and conditions named. Binding seen in cells or lysates may run through a third protein. Binding calls can cover weak binding; strength is not graded here.

B1: A-kinase anchor protein 1 (AKAP1), endogenous in brown adipocytes (protein, UniProt O08715-1 30-857)
chain: KDRLSSSDKQVETLKVGPAIKDRRLSEEACPGVLSVAPTVTQPPGREEQRCVDKPSTEPLALPRTRQVRRRSESSGNLPSVADTRSQPGPCRDEIAKVELSLMGDKAKSIPLGCPLLPKDASFPYEAVERCKQESALGKTPGRGWPSPYAASGEKARETGGTEGTGDAVLGENVSEEGLLSQECVSEVEKSEFPILAPGGGEGEEVSHGPPQVAELLKKEEYIVGKLPSSFVEPVHSEPVKDEDALEPQVKGSSNTSDRDLAGELDKDETVPENDQIKQAAFQLISQVILEATEEFRATTVGKTVAQVHPTSATQPKGKEESCVPASQETSLGQDTSDPASTRTGATASPSAEALPPKTYVSCLSSPLSGPTKDQKPKNSAHHISLAPCPPPVTPQRQSLEGASNPRGDDNFVACMANNSQSVLSVSSLGQCSDPVSTSGLEDSCTETISSSGDKAMTPPLPVSTQPFSNGVLKEELSDLGTEDGWTMDTEADHSGGSDGNSMDSVDSCCGLTKPDSPQSVQAGSNPKKVDLIIWEIEVPKHLVGRLIGKQGRYVSFLKQTSGAKIYISTLPYTQNIQICHIEGSQHHVDKALNLIGKKFKELNLTNIYAPPLPSLALPSLPMTSWLMLPDGITVEVIVVNQVNAGHLFVQQHTHPTFHALRSLDQQMYLCYSQPGIPTLPTPVEITVICAAPGADGAWWRAQVVASYEETNEVEIRYVDYGGYKRVKVDVLRQIRSDFVTLPFQGAEVLLDSVVPLSDDDHFSPEADAAMSEMTGNTALLAQVTSYSATGLPLIQLWSVVGDEVVLINRSLVERGLAQWVDSYYASL
For the molecule B1, the binding entry is recorded as “binds”.

For the origin of these results see PMC10541902.
